PubChem BioAssay AID1259300 | Sanger Institute – 2017
The whole screen tested 794 reagents; this is a random part of them. 18 of all reagents (2.3%) count as active. 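Calls rest on knock-down alone, not drug synergy; depositor treated synergy scores above 0.15 as synergistic; drug doses alone had little viability effect.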 Entries without a mark were called inactive. Further read-outs or replicates are left out here. Not stated in the record: the amount of reagent, the time to read-out.

Assay: 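Kinase and colorectal-mutated gene knock-downs lowering HCT15 viability or boosting drug effects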 (primary screen)
Cells: HCT15 colorectal cancer cells
Reagents: siRNA pool against human genes
Challenge: anchor drug or DMSO vehicle added 24 h after seeding: BYL719 1 µM, cetuximab 5 µg/ml, trametinib 10 nM; drug doses chosen to barely affect viability alone
Measured: 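Cell viability after knock-down, as fraction of non-targeting pool wells averaged over replicates, plus robust z-score for knock-down alone; synergy score per drug (BYL719 1 µM, cetuximab 5 µg/ml, trametinib 10 nM)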
Reading the numbers: viability z-score, siRNA alone: higher = more viable cells after knock-down
Hit rule: 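Called active (essential) if viability z-score with knock-down alone falls below -3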
Meaning of the calls: active = essential: knock-down alone lowers viability (z below -3); inactive = no strong viability loss with knock-down alone

MARK4 (microtubule affinity regulating kinase 4)
- viability z-score, siRNA alone: 0.625

LCK (LCK proto-oncogene, Src family tyrosine kinase)
- viability z-score, siRNA alone: -0.144

FBXW7 (F-box and WD repeat domain containing 7)
- viability z-score, siRNA alone: 0.625

NRAS (NRAS proto-oncogene, GTPase)
- viability z-score, siRNA alone: 0.625

CNOT1 (CCR4-NOT transcription complex subunit 1)
- viability z-score, siRNA alone: -0.215

RAD21 (RAD21 cohesin complex component)
- viability z-score, siRNA alone: -0.115

CMPK1 (cytidine/uridine monophosphate kinase 1)
- viability z-score, siRNA alone: 0.625

LMBR1 (limb development membrane protein 1)
- viability z-score, siRNA alone: 0.389

ADPGK (ADP dependent glucokinase)
- viability z-score, siRNA alone: 0.58

RIOK2 (RIO kinase 2)
- viability z-score, siRNA alone: -0.113

MAP2K4 (mitogen-activated protein kinase kinase 4)
- viability z-score, siRNA alone: 0.625

MYLK (myosin light chain kinase)
- viability z-score, siRNA alone: 0.613

CRIM1 (cysteine rich transmembrane BMP regulator 1)
- viability z-score, siRNA alone: 0.625

NEK6 (NIMA related kinase 6)
- viability z-score, siRNA alone: 0.625

PDK3 (pyruvate dehydrogenase kinase 3)
- viability z-score, siRNA alone: -0.063

ELP1 (elongator acetyltransferase complex subunit 1)
- viability z-score, siRNA alone: -0.52

DLG3 (discs large MAGUK scaffold protein 3)
- viability z-score, siRNA alone: -1.55

FCSK (fucose kinase)
- viability z-score, siRNA alone: 0.625

CDK18 (cyclin dependent kinase 18)
- viability z-score, siRNA alone: -5.21 (active)
